In PubChem BioAssay AID588590 (National Center for Advancing Translational Sciences (NCATS), 2011):
Several values for one entry are separate records, joined by “and”; a condition that tells them apart may be missing. Equal values may be shown once. Among all 390,000 compounds or so, about 4,000 (1%) were called active. This list was built around the results that the source calls inconclusive (neither active nor inactive); the mix of calls is not that of the screen. The call rests on the fitted dose curve; in most records, active means well fitted inhibition curve with a large enough effect; inconclusive means small, poorly fitted or top-dose-only effect, or another doubt; inactive means no such curve, though single readings can be large or run the other way. Where the call is inconclusive, the potency comes from a doubtful curve fit.

By UniProt entry, the sequences of proteins in these tests, tags left out. Where a name states a change or a piece, a line headed by the entry shows the natural chain unless it says otherwise.
UniProt Q9UNA4: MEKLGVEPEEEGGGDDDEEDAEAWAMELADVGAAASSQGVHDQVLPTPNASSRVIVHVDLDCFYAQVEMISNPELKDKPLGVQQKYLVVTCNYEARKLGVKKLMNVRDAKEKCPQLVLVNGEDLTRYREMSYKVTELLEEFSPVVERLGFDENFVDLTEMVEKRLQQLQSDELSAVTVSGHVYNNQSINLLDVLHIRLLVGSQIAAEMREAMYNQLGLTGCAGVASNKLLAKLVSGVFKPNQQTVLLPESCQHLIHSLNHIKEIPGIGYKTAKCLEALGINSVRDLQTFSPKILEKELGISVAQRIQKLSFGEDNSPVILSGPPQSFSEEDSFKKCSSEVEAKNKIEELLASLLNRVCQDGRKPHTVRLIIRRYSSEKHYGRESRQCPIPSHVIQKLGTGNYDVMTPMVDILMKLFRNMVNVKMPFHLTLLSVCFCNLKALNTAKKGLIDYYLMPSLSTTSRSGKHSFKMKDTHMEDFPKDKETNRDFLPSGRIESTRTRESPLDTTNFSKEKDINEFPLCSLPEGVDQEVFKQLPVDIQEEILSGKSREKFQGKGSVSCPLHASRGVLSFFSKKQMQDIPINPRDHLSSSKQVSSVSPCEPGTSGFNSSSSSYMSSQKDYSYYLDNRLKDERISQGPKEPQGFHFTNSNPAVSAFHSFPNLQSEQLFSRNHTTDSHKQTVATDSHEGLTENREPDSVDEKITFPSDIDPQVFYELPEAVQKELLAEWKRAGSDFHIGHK

The compounds below were run against DNA polymerase iota (Homo sapiens) (UniProt Q9UNA4) (assay: qHTS for Inhibitors of Polymerase Iota). Conditions: Pol iota fluorescent replication assay, 10 min; series mostly up to 115 µM.
Procedure, shortened: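 Pol iota at 10 nM preincubated 15 min with compounds at room temperature; reaction started with fluorescent substrate, 50 nM final. Fluorescence read kinetically at 0 and 10 min; buffer-only wells as negative control.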
Potency means the concentration at half of the fitted maximal effect.

Structure (SMILES) | Potency
Cc1ccc(C)c(CSc2nnc(C)n3c2cc2sccc23)c1 | inconclusive: 10 µM [inhibitor, partial curve, poor fit]
CC(=O)c1ccc(-n2c(CCC(=O)O)ccc2-c2cccs2)cc1 | inconclusive: 14.1 µM [inhibitor, full curve, poor fit] and inconclusive: 56.2 µM [inhibitor, partial curve, poor fit]
O=C(CCS(=O)(=O)c1ccccc1)N(Cc1cccnc1)c1nc2ccc(F)cc2s1 | inconclusive: 28.2 µM [inhibitor, partial curve]
CC(=O)c1ccc(-n2nnnc2SCC(=O)NC2CCCCC2)cc1 | inconclusive: 44.7 µM [inhibitor, partial curve]
CC(C)C(=O)N1CCN(CCN2C(=O)c3cccc4cccc(c34)C2=O)CC1 | inactive
CC(=O)Nc1ccc(C(=O)NNC(=O)CCc2ccccc2)cc1 | inconclusive: 50.1 µM [inhibitor, partial curve, poor fit]
Oc1c(Cl)cc(Cl)cc1C(C#Cc1ccccc1)N1CCOCC1 (centres undefined) | inconclusive: 28.2 µM [inhibitor, partial curve, poor fit]
Cc1cc(C)c2c(N)c3ccccc3nc2n1 | active: 14.1 µM
CCCCS(=O)(=O)c1oc(-c2ccc(F)cc2)nc1S(=O)(=O)c1ccc(C)cc1 | inconclusive: 17.8 µM [inhibitor, partial curve, poor fit]
O=C(CNC(=O)OCc1ccccc1)NCC(=O)Oc1ccc([N+](=O)[O-])cc1 | inactive
O=S(=O)(Nc1ccccc1O)c1ccc(-c2ccccc2)cc1 | inconclusive: 56.2 µM [inhibitor, single point]
Cc1c(C(=O)N2CCOCC2)oc2c1-c1nn(CC(=O)NCc3cccc(Cl)c3)cc1CC2 | inactive
Cc1nn(CC(=O)NCCc2cccs2)c(=O)c2nn(-c3ccccc3)c(C)c12 | active: 35.5 µM
CC1(C)Cc2nc3[nH]c(=S)n(-c4ccccc4)c(=O)c3cc2CO1 | inconclusive: 11.2 µM [inhibitor, full curve, poor fit]
COc1ccc(-c2ccc(C)cc2)cc1C1C2C=CCCC2(C)C(=O)N1Cc1ccccc1 (centres undefined) | inconclusive: 3.55 µM [inhibitor, full curve, poor fit]
CCN(CC)c1ccc(/C=C/C(=O)C2C(=O)C=C(C)OC2=O)cc1 (centres undefined) | inconclusive: 20 µM [inhibitor, full curve, poor fit]
O=C(Nc1nc2ccc(SC(F)F)cc2s1)c1ccc(NS(=O)(=O)c2ccc(F)c(F)c2)cc1 | inconclusive: 31.6 µM [inhibitor, single point]
NC(=O)[C@H](Cc1cc2ccccc2s1)NC(=O)[C@@H]1CC2(CC(c3cccc(NC(=O)[C@@H]4CCC(=O)N4)c3)=NO2)CN1C(=O)/C=C/Sc1ccccc1 (some centres undefined) | inconclusive: 15.8 µM [inhibitor, partial curve, poor fit]
O=C1/C(=C/c2ccccc2)SC(=S)N1N1C(=O)C2CC2C1=O (centres undefined) | inconclusive: 22.4 µM [inhibitor, partial curve, poor fit]
O=C1N/C(=N\N=C\c2ccco2)SC1Cc1ccccc1[N+](=O)[O-] (centres undefined) | inconclusive: 0.631 µM [inhibitor, full curve, poor fit]

Structure (SMILES) | Potency
O=C1C(c2ccc(F)cc2)N(CCc2ccccc2)C(=O)CN1C1CCCCCC1 (centres undefined) | inactive
COc1cc(CN2CCC(n3nccc3NC(=O)c3ccccc3OC)CC2)ccc1F | inconclusive: 2.82 µM [inhibitor, full curve, poor fit]
COc1cc(OC)c(NC(=O)c2ccc(F)cc2)cc1Cl | inconclusive: 89.1 µM [inhibitor, single point]
CC(=O)Nc1ccc(N(C(=O)Cn2nnc3ccccc32)C(C(=O)NCc2ccccc2)c2ccc(C)cc2)cc1 (centres undefined) | inconclusive: 39.8 µM [inhibitor, single point]
CCOc1cc(/C=N/NC(=O)c2ccccn2)ccc1OC(=O)c1cccs1 | inactive
Nc1sc2c(c1C(=O)NC1CC1)CCCC2 | inconclusive: 28.2 µM [inhibitor, partial curve, poor fit]
O=C(/C=C/c1ccc(Cl)cc1Cl)c1cccnc1 | inconclusive: 14.1 µM [inhibitor, partial curve, poor fit]
COc1ccccc1NCCC(=O)O | inactive
Cc1cc(=O)[nH]c2c(N=Nc3ccc(O)cc3)c(N)nn12 | inconclusive: 79.4 µM [inhibitor, partial curve, poor fit]
Cc1cc(SCC(=O)N/N=C/c2ccc(O)c(O)c2)c(C)cc1Br | inconclusive: 28.2 µM [inhibitor, single point]
Cc1cccc(S(=O)(=O)c2c(N)n(Cc3ccco3)c3nc4ccccc4nc23)c1 | inconclusive: 11.2 µM [inhibitor, full curve, poor fit]
Cc1ccc(Cl)cc1NC(=O)CN1C(=O)CCc2ccccc21 | inactive
Cc1cc(NC(=O)CN2CCC(C)CC2)nc2c1c(=O)oc1ccccc12 | inconclusive: 89.1 µM [inhibitor, single point]
Cc1ccc2c(c1)[nH]c1c(=O)n(CCN3CCNCC3)cnc12 | inconclusive: 89.1 µM [inhibitor, single point]
COc1ccc(C(=O)Nc2nc(-c3nnn(-c4ccc(C(C)C)cc4)c3C)ns2)cc1 | inactive
Cc1ccc(C(=O)Nc2ccc(Oc3ccc(C(=O)O)c(C(=O)O)c3)cc2)cc1C | inconclusive: 17.8 µM [inhibitor, single point]
COc1ccc(/C=N/OCC(=O)N=Nc2c(O)[nH]c3ccc(Br)cc23)cc1OC | inconclusive: 39.8 µM [inhibitor, partial curve]
CN(Cc1ccccc1)C(=O)c1ccc(NC(=O)Cc2ccc(NC(=O)C3CCN(C(=O)C4CCCC4)CC3)cc2)cc1 | inconclusive: 70.8 µM [inhibitor, partial curve]
O=C(COc1coc(CN2CCc3ccccc32)cc1=O)NCCc1ccccc1 | inconclusive: 39.8 µM [inhibitor, partial curve, poor fit]

Pulled by compound from above (two):
Structure (SMILES) | Potency
Cc1cc(NC(=O)CN2CCC(C)CC2)nc2c1c(=O)oc1ccccc12 | inconclusive: 89.1 µM [inhibitor, single point]
Cc1cc(SCC(=O)N/N=C/c2ccc(O)c(O)c2)c(C)cc1Br | inconclusive: 28.2 µM [inhibitor, single point]
